Data: article PMC4518479, “Rad51 Paralogs Remodel Pre-synaptic Rad51 Filaments to Stimulate Homologous Recombination” (Cell, 2015)
Construct, isoform or probe ends are uncertain for at least one entry. At least one verdict was read from the data and is not stated in words by the source. Where a protein sequence is shown, tags need not be part of it.

Assays:
[1] = target: T1, RAD-51 (Caenorhabditis elegans) (UniProt Q7K7I8); assay: EMSA; details: ATP; EMSA: 20 mM triethanolamine-HCl pH 7.5, 8% glycerol, 1 mM DTT, 50 mM sodium acetate, 2 mM MgCl2 + 2 mM nucleotide (or 10 mM EDTA), 100 nM (nt) DNA, 25 °C; recombinant protein; residues 1-357; label: 5'-32P or 5'-fluorescein; single-stranded DNA
T1 sequence (looked up): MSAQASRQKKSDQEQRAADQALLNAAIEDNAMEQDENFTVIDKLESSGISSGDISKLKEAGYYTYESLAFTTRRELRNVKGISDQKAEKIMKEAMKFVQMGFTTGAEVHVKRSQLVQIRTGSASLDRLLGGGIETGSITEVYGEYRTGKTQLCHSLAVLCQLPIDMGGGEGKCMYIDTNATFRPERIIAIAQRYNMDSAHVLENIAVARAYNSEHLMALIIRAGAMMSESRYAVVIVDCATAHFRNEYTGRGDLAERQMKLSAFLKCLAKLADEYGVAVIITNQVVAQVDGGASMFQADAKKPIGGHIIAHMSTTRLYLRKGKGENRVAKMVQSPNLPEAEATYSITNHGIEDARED

[2] = target: T1, RAD-51 (Caenorhabditis elegans); assay: DNaseI protection; details: recombinant protein; residues 1-357; label: 5'-fluorescein; single-stranded DNA

Row | Sequence | binding result [1] | binding result [2]
1 | ACGCTGCCGAATTCTACCAGTGCCTTGCTAGGACATCTTTGCCCACCTGCAGGTTCACCC [60-mer ssDNA] | binds | 
2 | AGCTACCATGCCTGCACGAATTAAGCAATTCGTAATCATGGGTCAAAATCAATCTAAAGTATATATGAGTAAACTTGGTCTGACAGTTACCAATGCTTAATCAGTGAGGCACCTATCTCAGCGATCTGTCTATTT [135-mer ssDNA] |  | binds
